{"source": "PubChem BioAssay AID1259254 (NCATS, 2017)", "screen": "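Finding genes that stop cells copying their DNA twice in one cycle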 (primary screen)", "system": "human HCT116 colorectal cancer cells", "reagent": "single siRNA against human genes", "timing": "3 days", "detection": "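Imaged Hoechst DNA stain sorts each cell into a cycle phase by DNA amount; per plate, G2 fraction set to 0% for non-targeting and 100% for GMNN siRNA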", "reading the numbers": "G2 robust z-score: higher = more G2 cells, more excess DNA replication", "active means": "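An siRNA counts as active if its G2 robust z-score lies at least 5 MADs above the screen median; here such calls match roughly 38% of GMNN control or more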", "note": "This is one part, drawn at random, of about 59,000 reagents. Over the whole deposit, about 1,550 (2.6%) were called active. 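G2 share is only a proxy for re-replication; each gene was hit by three separate siRNAs, and active genes were retested.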 The numbers tell different reagents against one gene apart. Not all columns of the deposit are shown. The record does not give: the amount of reagent."}
The opening 2 entries as a preview:
{"Target gene": "MFAP4 (GeneID 4239)", "siRNA no.": 1, "G2 robust z-score": -0.263, "call": "inactive"}
{"Target gene": "MFAP4 (GeneID 4239)", "siRNA no.": 2, "G2 robust z-score": -1.48, "call": "inactive"}

The list itself, repeating the preview:
{"Target gene": "MFAP4 (GeneID 4239)", "siRNA no.": 1, "G2 robust z-score": -0.263, "call": "inactive"}
{"Target gene": "MFAP4 (GeneID 4239)", "siRNA no.": 2, "G2 robust z-score": -1.48, "call": "inactive"}
{"Target gene": "MFAP4 (GeneID 4239)", "siRNA no.": 3, "G2 robust z-score": 0.935, "call": "inactive"}
{"Target gene": "MARVELD3 (GeneID 91862)", "siRNA no.": 1, "G2 robust z-score": 0.588, "call": "inactive"}
{"Target gene": "MARVELD3 (GeneID 91862)", "siRNA no.": 2, "G2 robust z-score": 0.109, "call": "inactive"}
{"Target gene": "MARVELD3 (GeneID 91862)", "siRNA no.": 3, "G2 robust z-score": -0.692, "call": "inactive"}
{"Target gene": "PEF1 (GeneID 553115)", "siRNA no.": 1, "G2 robust z-score": -0.851, "call": "inactive"}
{"Target gene": "PEF1 (GeneID 553115)", "siRNA no.": 2, "G2 robust z-score": -0.358, "call": "inactive"}
{"Target gene": "PEF1 (GeneID 553115)", "siRNA no.": 3, "G2 robust z-score": 2.17, "call": "inactive"}
{"Target gene": "OR1D4 (GeneID 653166)", "siRNA no.": 1, "G2 robust z-score": 0.645, "call": "inactive"}
{"Target gene": "OR1D4 (GeneID 653166)", "siRNA no.": 2, "G2 robust z-score": 0.719, "call": "inactive"}
{"Target gene": "OR1D4 (GeneID 653166)", "siRNA no.": 3, "G2 robust z-score": 1.01, "call": "inactive"}
{"Target gene": "TECR (GeneID 9524)", "siRNA no.": 1, "G2 robust z-score": 0.0983, "call": "inactive"}
{"Target gene": "TECR (GeneID 9524)", "siRNA no.": 2, "G2 robust z-score": -0.537, "call": "inactive"}
{"Target gene": "TECR (GeneID 9524)", "siRNA no.": 3, "G2 robust z-score": 0.717, "call": "inactive"}
{"Target gene": "LINC02604 (GeneID 644794)", "siRNA no.": 1, "G2 robust z-score": 1.49, "call": "inactive"}
{"Target gene": "LINC02604 (GeneID 644794)", "siRNA no.": 2, "G2 robust z-score": -0.541, "call": "inactive"}
{"Target gene": "LINC02604 (GeneID 644794)", "siRNA no.": 3, "G2 robust z-score": -1.03, "call": "inactive"}
{"Target gene": "HERC2P3 (GeneID 283755)", "siRNA no.": 1, "G2 robust z-score": -0.0802, "call": "inactive"}
{"Target gene": "HERC2P3 (GeneID 283755)", "siRNA no.": 2, "G2 robust z-score": 0.396, "call": "inactive"}
{"Target gene": "HERC2P3 (GeneID 283755)", "siRNA no.": 3, "G2 robust z-score": -0.365, "call": "inactive"}
{"Target gene": "SAMD7 (GeneID 344658)", "siRNA no.": 1, "G2 robust z-score": -0.658, "call": "inactive"}
{"Target gene": "SAMD7 (GeneID 344658)", "siRNA no.": 2, "G2 robust z-score": 0.294, "call": "inactive"}
{"Target gene": "SAMD7 (GeneID 344658)", "siRNA no.": 3, "G2 robust z-score": -0.0822, "call": "inactive"}
